The target in this assay is T1, phosphoinositide-dependent kinase 1 (human (endogenous in RERF-LC-AI)) (UniProt O15530).
T1 sequence: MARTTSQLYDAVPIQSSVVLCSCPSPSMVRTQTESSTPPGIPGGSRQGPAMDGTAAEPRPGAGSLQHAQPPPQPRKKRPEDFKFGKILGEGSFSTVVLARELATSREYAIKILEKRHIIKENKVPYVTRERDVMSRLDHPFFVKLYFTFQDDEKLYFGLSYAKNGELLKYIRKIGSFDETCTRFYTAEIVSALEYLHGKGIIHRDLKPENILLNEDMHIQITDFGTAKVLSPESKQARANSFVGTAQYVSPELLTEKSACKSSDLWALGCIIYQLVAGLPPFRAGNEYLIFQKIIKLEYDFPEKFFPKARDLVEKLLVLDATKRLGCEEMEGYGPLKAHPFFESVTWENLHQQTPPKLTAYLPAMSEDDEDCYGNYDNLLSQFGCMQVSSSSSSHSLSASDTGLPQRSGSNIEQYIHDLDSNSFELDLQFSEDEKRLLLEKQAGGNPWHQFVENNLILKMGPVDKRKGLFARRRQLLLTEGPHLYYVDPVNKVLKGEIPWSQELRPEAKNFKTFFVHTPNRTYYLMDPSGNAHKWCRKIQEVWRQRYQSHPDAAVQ
As to the kind of experiment: co-IP; lysates of RERF-LC-AI cells treated with or without 10 μM chrysin, incubated with Protein G-sepharose and anti-PDK1 antibody for 16 h at 4 °C; washed four times with 150 mM NaCl, 0.5 mM EDTA, 0.5% Triton X-100, 50 mM Tris-HCl (pH 7.4); western blotting for Akt and PDK1. (Immunoblotting shows a protein as a band on a membrane.)

These are yes or no findings as the source states them, for the method shown. In cells and extracts the contact can be indirect. Binding can be weak; no strength is given.

For Akt (human (endogenous in RERF-LC-AI)), the binding entry is “binds”.

Source of the values: PMC6760125.
